PubChem BioAssay AID493246 – Drosophila RNAi Screening Center | 2011

Assay: 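Genes fly cells need to grow and stay alive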 (primary screen)
Cells: Drosophila Kc and S2R+ cells
Knock-down reagent: long dsRNA against Drosophila genes
Measurement: 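Cell number per well after knock-down, printed as raw plate values; calls were based on per-plate z-scores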
Direction: Kc cell number and S2R+ cell number: higher = more cells remaining
Active means: 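Active when the per-plate z-score of cell number is 3 or more in the direction of fewer cells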
In all, the deposit lists about 21,000 reagents; this is an unselected part of those that have a named target and a result. Of all reagents, 429 (2%) were called active. 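Values are raw and not normalised between plates; calls rest on per-plate z-scores that were not deposited.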 Unmarked entries are inactive. The numbers tell different reagents against one gene apart. Names joined by + are all predicted targets of the reagent. Not stated in the record: the amount of reagent, the time to read-out.

| target | reagent no. | Kc cell number, rep 1 | Kc cell number, rep 2 | S2R+ cell number, rep 1 | S2R+ cell number, rep 2 |
| --- | --- | --- | --- | --- | --- |
| CG1075 (retired record) | 1 | 1.58e6 | 1.90e6 | 1.23e6 | 1.32e6 |
| EMC3 | 1 | 1.45e6 | 1.56e6 | 1.27e6 | 1.39e6 |
| Nopp140 | 1 | 1.72e6 | 1.81e6 | 1.36e6 | 1.47e6 |
| CG3164 | 1 | 1.60e6 | 1.59e6 | 1.09e6 | 1.30e6 |
| CG3061 | 1 | 1.28e6 | 1.54e6 | 1.15e6 | 1.22e6 |
| Pgant1 | 1 | 1.75e6 | 1.73e6 | 1.32e6 | 1.54e6 |
| CG34328 | 1 | 1.44e6 | 1.75e6 | 1.18e6 | 1.26e6 |
| CG15484 | 1 | 1.45e6 | 1.45e6 | 1.05e6 | 1.13e6 |
| AANATL5 | 1 | 1.66e6 | 1.63e6 | 1.12e6 | 1.19e6 |
| GluRS-m | 1 | 1.37e6 | 1.39e6 | 1.23e6 | 1.34e6 |
| NT1 | 1 | 1.54e6 | 1.44e6 | 1.17e6 | 1.23e6 |
| CG11426 | 1 | 1.76e6 | 2.09e6 | 1.21e6 | 1.37e6 |
| side-IV + CG17025 (retired record) | 1 | 1.35e6 | 1.35e6 | 1.06e6 | 1.22e6 |
| Dro | 1 | 1.58e6 | 1.53e6 | 1.17e6 | 1.37e6 |
| CG42662 + CG30080 | 1 | 1.81e6 | 1.82e6 | 1.17e6 | 1.32e6 |
| CG12206 | 1 | 1.53e6 | 1.58e6 | 1.09e6 | 1.21e6 |
| CG30432 | 1 | 1.50e6 | 1.51e6 | 9.68e5 | 1.08e6 |
| FRG1 | 1 | 1.56e6 | 1.75e6 | 1.21e6 | 1.32e6 |
| Pngl | 1 | 1.57e6 | 1.67e6 | 1.37e6 | 1.51e6 |
| Gagr | 1 | 1.59e6 | 1.62e6 | 1.42e6 | 1.49e6 |
| wun | 1 | 1.37e6 | 1.42e6 | 1.03e6 | 1.09e6 |
| Or67d | 1 | 1.62e6 | 1.74e6 | 1.20e6 | 1.32e6 |
| CG30058 + CG34235 + CG34312 | 1 | 1.57e6 | 1.52e6 | 1.08e6 | 1.23e6 |
| CG14488 | 1 | 1.86e6 | 1.78e6 | 1.32e6 | 1.58e6 |
| Rab27 | 1 | 5.33e5 | – | 8.49e5 | – |
| CG9084 | 1 | 1.44e6 | 1.53e6 | 1.22e6 | 1.26e6 |
| Ir11a | 1 | 1.77e6 | 1.60e6 | 1.13e6 | 1.20e6 |
| CG31121 | 1 | 1.55e6 | 1.50e6 | 9.80e5 | 1.06e6 |
| CG31121 | 2 | 1.53e6 | 1.47e6 | 9.83e5 | 1.05e6 |
| CG10543 | 1 | 1.72e6 | 1.83e6 | 1.20e6 | 3.44e5 |
| CG14770 | 1 | 1.48e6 | 1.45e6 | 1.01e6 | 1.14e6 |
| CG15742 | 1 | 6.19e5 | – | 7.98e5 | – |
| CG15209 | 1 | 1.85e6 | 1.74e6 | 1.10e6 | 1.22e6 |
| CG15482 | 1 | 1.70e6 | 1.75e6 | 1.29e6 | 1.45e6 |
| mRpS30 | 1 | 5.66e5 | – | 7.60e5 | – |
| CG33310 | 1 | 1.49e6 | 1.53e6 | 1.24e6 | 1.36e6 |
| CG9951 | 1 | 1.47e6 | 1.51e6 | 1.28e6 | 1.27e6 |
| CG31933 | 1 | 1.58e6 | 1.54e6 | 1.14e6 | 1.20e6 |
| l(3)72Dp | 1 | 1.38e6 | 1.54e6 | 1.31e6 | 1.42e6 |
| RpS17 | 1 | 1.04e6 | 1.12e6 | 8.54e5 | 9.67e5 |

6 entries from above, ordered by “S2R+ cell number, rep 1”, high to low:
| target | reagent no. | Kc cell number, rep 1 | Kc cell number, rep 2 | S2R+ cell number, rep 1 | S2R+ cell number, rep 2 |
| --- | --- | --- | --- | --- | --- |
| CG10543 | 1 | 1.72e6 | 1.83e6 | 1.20e6 | 3.44e5 |
| CG15209 | 1 | 1.85e6 | 1.74e6 | 1.10e6 | 1.22e6 |
| CG14770 | 1 | 1.48e6 | 1.45e6 | 1.01e6 | 1.14e6 |
| CG31121 | 2 | 1.53e6 | 1.47e6 | 9.83e5 | 1.05e6 |
| CG31121 | 1 | 1.55e6 | 1.50e6 | 9.80e5 | 1.06e6 |
| CG15742 | 1 | 6.19e5 | – | 7.98e5 | – |
